# Measurements as given in the supplement of paper PMC11409438.
# Structures can show the parent of a compound that is named as a salt. Some of the results follow. Most values come without repeats; read them as rough.
# Assays:
# [1] = system: Caenorhabditis elegans ST65 (ncIs13[ajm-1::GFP]); assay: 'Larvae/adult' ratio (MetaXpress pharynx counts; minimum value 1, so it appears to include adults; growth inhibition read-out); details: 10 µM; exposure time: 4-5 days from L1 at 20°C
# [2] = system: Caenorhabditis elegans ST65 (ncIs13[ajm-1::GFP]); assay: vulvae per adult worm (MAPK/ERK-dependent vulval induction, MetaXpress) (vulvae/adult); higher = more vulval induction (less MAPK/ERK inhibition); details: 10 µM; exposure time: 4-5 days from L1 at 20°C
Structure (SMILES),'Larvae/adult' ratio [1],vulvae per adult worm [2]
COc1cccc(-c2ccc(NC(=O)C3=C(C(=O)O)CCC3)c(F)c2)c1 [Vidofludimus],2.76,0.824
N#CCNC(=O)c1ccc(-c2ccnc(Nc3ccc(N4CCOCC4)cc3)n2)cc1 [Momelotinib (CYT387)],2.21,0.792
COc1nc(N)nc2c1ncn2[C@@H]1O[C@H](CO)[C@@H](O)[C@@H]1O [Nelarabine],2.22,1.03
O=C(NOCCO)c1ccc2cncn2c1Nc1ccc(I)cc1F,1.79,0.158
COc1ccc(COc2cc3oc(=O)c4cc(C(C)O)ccc4c3cc2OC)cc1 (stereo unspecified) [Palomid 529 (P529)],1.79,0.846
Cc1cnc(Nc2ccc(OCCN3CCCC3)cc2)nc1Nc1cccc(S(=O)(=O)NC(C)(C)C)c1,1.77,0.745
CC(C)C(=O)Nc1ccc([N+](=O)[O-])c(C(F)(F)F)c1 [Flutamide],5,0.857
CCn1cc(-c2ccnc3[nH]c(-c4cccc(CN(C)C)c4)cc23)c(-c2ccc(NC(=O)N(C)C)cc2)n1,1.76,0.703
C#Cc1cccc(Nc2ncnc3cc(OCCOC)c(OCCOC)cc23)c1 [Erlotinib],1.69,0.75
Cc1nc(-c2cn3c(n2)-c2ccc(-c4cnn(C(C)(C)C(N)=O)c4)cc2OCC3)n(C(C)C)n1 [Taselisib (GDC 0032)],2.52,1.13
O=C(/C=C\n1cnc(-c2cc(C(F)(F)F)cc(C(F)(F)F)c2)n1)NNc1ccccn1 [Verdinexor (KPT-335)],6.18,0.545
COCC(=O)Nc1cc(Sc2ccccc2)ccc1N=C(NC(=O)OC)NC(=O)OC [Febantel],1.59,1.03
C[C@@H]1CCN(C(=O)CC#N)C[C@@H]1N(C)c1ncnc2[nH]ccc12,1.65,0.973
Cc1cc2c(F)c(Oc3ncnn4cc(OC[C@@H](C)O)c(C)c34)ccc2[nH]1,2.1,0.9
COc1ccc(-c2nc(N3CCOCC3)c3sc(CN(C)c4ncc(C(=O)NO)cn4)cc3n2)cn1,2.58,0.75
NS(=O)(=O)NCCNc1nonc1/C(=N/O)Nc1ccc(F)c(Br)c1,3.32,1.2
Cc1cc(-c2ncc(CC(=O)Nc3ccc(-c4cnccn4)cn3)cc2C)ccn1,2.7,0.95
CCc1c2c(nc3ccc(O)cc13)-c1cc3c(c(=O)n1C2)COC(=O)[C@]3(O)CC,1.23,1.08
"CC(C)n1nc(-c2ccc3oc(N)nc3c2)c2c(N)ncnc21 [Sapanisertib (INK 128, MLN0128)]",1.94,0.394
Cc1ccc(NC(=O)c2ccc(CN3CCN(C)CC3)cc2)cc1Nc1nc(-c2cccnc2)cs1 [Masitinib (AB1010)],1.52,0.731
Cc1cc(Nc2cc(N3CCN(C)CC3)nc(/C=C/c3ccccc3)n2)n[nH]1,2.07,0.966
O=C(Nc1c[nH]nc1-c1nc2ccc(CN3CCOCC3)cc2[nH]1)NC1CC1,1.5,1
CCNc1nc(Nc2cc(F)c(C(=O)N3CCOCC3)cc2OC)ncc1C(F)(F)F,3.57,1.43
CCCOc1ccn2c(C(C)=O)cc(-c3ccccc3S(C)(=O)=O)c2c1,3.29,1.76
Nc1ncn([C@@H]2O[C@H](CO)[C@@H](O)[C@H]2O)c(=O)n1 [Azacitidine],2,1
CC1(N)CCN(c2cnc(-c3cccc(Cl)c3Cl)c(N)n2)CC1 [SHP099 dihydrochloride],1.72,0.86
C=CCc1cccc(/C=N/NC(=O)CN2CCN(Cc3ccccc3)CC2)c1O,1.68,0.585
CC[C@H](NC(=O)[C@H](C)NC)C(=O)N1C[C@@H](O)C[C@H]1Cc1c(-c2[nH]c3cc(F)ccc3c2C[C@@H]2C[C@H](O)CN2C(=O)[C@H](CC)NC(=O)[C@H](C)NC)[nH]c2cc(F)ccc12 [Birinapant],1.61,1.05

# Single records (already shown):
# Cc1cc(-c2ncc(CC(=O)Nc3ccc(-c4cnccn4)cn3)cc2C)ccn1 is listed with 'Larvae/adult' ratio [1]: 2.7; vulvae per adult worm [2]: 0.95
# COc1cccc(-c2ccc(NC(=O)C3=C(C(=O)O)CCC3)c(F)c2)c1 [Vidofludimus] is listed with 'Larvae/adult' ratio [1]: 2.76; vulvae per adult worm [2]: 0.824
